{"source": "paper PMC9793359", "binders": {"B1": {"name": "ETFA, endogenous (protein, UniProt P13804 20-333)", "chain": "QSTLVIAEHANDSLAPITLNTITAATRLGGEVSCLVAGTKCDKVAQDLCKVAGIAKVLVAQHDVYKGLLPEELTPLILATQKQFNYTHICAGASAFGKNLLPRVAAKLEVAPISDIIAIKSPDTFVRTIYAGNALCTVKCDEKVKVFSVRGTSFDAAATSGGSASSEKASSTSPVEISEWLDQKLTKSDRPELTGAKVVVSGGRGLKSGENFKLLYDLADQLHAAVGASRAAVDAGFVPNDMQVGQTGKIVAPELYIAVGISGAIQHLAGMKDSKTIVAINKDPEAPIFQVADYGIVADLFKVVPEMTEILKKK"}}, "molecular_target": "SARS-CoV-2 RdRp complex (Flag-nsp12, Flag-nsp7 and Flag-nsp8 co-expressed) (SARS-CoV-2) (UniProt P0DTD1)", "test": "affinity purification with mass spectrometry", "note": "No constants are given. Whether binding was seen depends on the method and setting. Binding seen in cells or lysates may run through a third protein. A yes stands for co-enrichment or nearness to the bait. Other partners may have been found."}
{"binder": "B1", "values": [{"measurement": "binding", "result": "binds"}]}
